Experimental data: publication PMC10520482
No constants are given. Whether binding was seen depends on the method and setting. Binding seen in cells or lysates may run through a third protein. For some of these results: Binding calls can cover weak binding; strength is not graded here. For some of these results: Where a sequence is shown, tags or fusion partners need not be part of it.

Protein sequences, listed by entry. Tags and fused reporters are not part of them.
UniProt P33993: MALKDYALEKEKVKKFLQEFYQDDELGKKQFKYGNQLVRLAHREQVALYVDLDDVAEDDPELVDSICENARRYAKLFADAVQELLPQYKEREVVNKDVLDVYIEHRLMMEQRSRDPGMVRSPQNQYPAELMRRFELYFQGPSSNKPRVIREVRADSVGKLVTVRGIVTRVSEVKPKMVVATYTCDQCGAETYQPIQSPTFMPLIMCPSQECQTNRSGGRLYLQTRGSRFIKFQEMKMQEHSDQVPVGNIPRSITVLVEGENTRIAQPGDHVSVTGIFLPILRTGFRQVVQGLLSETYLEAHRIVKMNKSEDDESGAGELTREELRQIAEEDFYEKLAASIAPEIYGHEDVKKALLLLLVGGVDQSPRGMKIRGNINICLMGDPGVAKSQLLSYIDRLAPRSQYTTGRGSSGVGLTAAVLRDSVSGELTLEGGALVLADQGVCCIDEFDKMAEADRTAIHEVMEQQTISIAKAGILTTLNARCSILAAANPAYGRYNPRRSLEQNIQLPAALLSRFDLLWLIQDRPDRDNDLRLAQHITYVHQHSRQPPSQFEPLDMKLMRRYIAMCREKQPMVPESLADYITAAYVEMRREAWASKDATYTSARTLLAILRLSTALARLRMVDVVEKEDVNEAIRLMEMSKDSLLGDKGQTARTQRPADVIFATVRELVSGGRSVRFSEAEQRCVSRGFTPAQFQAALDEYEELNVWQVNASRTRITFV
UniProt O43303: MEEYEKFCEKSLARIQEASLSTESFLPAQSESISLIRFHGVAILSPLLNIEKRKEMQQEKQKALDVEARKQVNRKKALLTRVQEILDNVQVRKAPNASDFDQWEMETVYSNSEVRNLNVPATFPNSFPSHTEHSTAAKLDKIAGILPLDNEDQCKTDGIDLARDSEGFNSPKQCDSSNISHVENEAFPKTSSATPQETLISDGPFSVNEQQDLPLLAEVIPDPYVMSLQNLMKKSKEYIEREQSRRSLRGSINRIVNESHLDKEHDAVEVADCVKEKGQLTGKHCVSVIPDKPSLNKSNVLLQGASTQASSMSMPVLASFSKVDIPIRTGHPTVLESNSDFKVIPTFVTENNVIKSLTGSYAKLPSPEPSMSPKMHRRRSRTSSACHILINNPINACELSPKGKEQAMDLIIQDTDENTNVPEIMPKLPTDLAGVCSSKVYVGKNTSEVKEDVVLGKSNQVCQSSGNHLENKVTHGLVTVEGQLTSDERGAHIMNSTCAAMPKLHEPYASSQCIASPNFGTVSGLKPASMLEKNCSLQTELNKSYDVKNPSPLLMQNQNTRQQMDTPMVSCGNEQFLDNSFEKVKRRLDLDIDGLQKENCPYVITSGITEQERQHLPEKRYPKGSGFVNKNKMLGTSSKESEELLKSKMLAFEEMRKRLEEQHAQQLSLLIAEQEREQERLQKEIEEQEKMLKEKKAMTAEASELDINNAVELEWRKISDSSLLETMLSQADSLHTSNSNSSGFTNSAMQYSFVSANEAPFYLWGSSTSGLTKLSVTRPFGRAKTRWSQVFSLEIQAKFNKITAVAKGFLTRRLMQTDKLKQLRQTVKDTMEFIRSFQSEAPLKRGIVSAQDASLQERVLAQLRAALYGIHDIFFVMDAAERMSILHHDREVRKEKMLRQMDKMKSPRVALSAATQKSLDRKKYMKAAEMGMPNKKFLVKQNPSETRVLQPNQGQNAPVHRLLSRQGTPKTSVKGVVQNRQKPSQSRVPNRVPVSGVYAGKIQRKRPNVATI
UniProt Q8IY31: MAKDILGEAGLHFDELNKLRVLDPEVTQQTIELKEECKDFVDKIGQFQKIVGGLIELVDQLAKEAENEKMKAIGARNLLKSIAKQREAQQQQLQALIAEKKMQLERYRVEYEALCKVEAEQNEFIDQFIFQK
UniProt Q15691: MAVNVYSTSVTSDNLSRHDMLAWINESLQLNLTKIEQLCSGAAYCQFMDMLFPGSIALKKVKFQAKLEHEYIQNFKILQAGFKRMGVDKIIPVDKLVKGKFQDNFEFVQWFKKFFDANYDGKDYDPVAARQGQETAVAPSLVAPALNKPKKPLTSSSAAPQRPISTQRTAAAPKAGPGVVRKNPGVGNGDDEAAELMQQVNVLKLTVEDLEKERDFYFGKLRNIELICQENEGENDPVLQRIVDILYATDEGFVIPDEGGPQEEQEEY
UniProt P61006: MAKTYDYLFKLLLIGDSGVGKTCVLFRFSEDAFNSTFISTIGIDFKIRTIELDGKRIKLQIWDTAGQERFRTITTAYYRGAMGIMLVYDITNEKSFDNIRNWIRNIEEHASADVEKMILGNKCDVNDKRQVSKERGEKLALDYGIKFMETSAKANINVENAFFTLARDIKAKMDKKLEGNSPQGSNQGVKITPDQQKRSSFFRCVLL
UniProt Q01968: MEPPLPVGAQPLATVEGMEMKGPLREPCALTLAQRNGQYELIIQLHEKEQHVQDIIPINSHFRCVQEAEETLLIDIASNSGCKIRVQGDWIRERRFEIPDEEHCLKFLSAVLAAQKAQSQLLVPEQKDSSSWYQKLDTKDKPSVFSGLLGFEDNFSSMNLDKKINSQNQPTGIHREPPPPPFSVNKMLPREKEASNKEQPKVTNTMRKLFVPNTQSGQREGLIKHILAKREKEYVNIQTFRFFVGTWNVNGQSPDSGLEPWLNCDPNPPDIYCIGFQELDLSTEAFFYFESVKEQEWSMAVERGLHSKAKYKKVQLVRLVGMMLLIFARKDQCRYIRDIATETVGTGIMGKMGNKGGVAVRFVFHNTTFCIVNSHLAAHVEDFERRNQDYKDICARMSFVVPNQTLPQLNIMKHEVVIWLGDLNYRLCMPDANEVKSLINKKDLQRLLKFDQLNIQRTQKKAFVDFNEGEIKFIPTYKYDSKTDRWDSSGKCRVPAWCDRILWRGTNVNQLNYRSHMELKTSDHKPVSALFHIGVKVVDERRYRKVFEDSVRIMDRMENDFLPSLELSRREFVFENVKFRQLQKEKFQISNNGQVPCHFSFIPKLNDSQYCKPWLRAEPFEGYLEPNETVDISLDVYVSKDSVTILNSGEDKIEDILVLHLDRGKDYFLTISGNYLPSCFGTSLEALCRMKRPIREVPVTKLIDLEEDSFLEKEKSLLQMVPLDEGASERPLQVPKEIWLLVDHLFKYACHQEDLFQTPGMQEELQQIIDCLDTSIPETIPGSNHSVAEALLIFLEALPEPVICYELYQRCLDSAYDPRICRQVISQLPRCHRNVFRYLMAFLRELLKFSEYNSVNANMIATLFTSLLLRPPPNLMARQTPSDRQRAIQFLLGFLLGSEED

What was measured:
GFP-RABIN8 = biological target: T1, GFP-RABIN8 (UniProt Q96QF0); test: co-IP; HEK293T co-transfected with MYC-CENTLEIN and a GFP-tagged plasmid for 48 h; anti-GFP immunoprecipitation, blot with anti-MYC and anti-GFP; ELB buffer (50 mM HEPES pH 7.4, 250 mM NaCl, 0.1% NP-40), 4°C
T1 sequence: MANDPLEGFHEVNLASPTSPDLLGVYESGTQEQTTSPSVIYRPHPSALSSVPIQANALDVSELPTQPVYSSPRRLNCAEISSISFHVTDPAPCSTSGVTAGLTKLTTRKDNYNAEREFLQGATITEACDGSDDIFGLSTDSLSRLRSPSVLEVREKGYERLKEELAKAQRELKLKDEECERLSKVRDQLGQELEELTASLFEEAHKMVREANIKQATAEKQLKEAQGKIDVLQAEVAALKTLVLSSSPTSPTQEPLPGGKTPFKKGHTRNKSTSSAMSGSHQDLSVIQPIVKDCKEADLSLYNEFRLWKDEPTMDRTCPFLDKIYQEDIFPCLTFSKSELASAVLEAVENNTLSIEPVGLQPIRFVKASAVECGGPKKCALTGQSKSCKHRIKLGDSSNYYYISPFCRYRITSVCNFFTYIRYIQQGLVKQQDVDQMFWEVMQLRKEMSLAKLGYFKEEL

[1] = biological target: GFP-MCM7 (human (from HeLa cDNA)) (UniProt P33993); test: as above
[2] = biological target: GFP-CP110 (human (from HeLa cDNA)) (UniProt O43303); test: as above
[3] = biological target: T2, GFP-KIFC3 (human (from HeLa cDNA)) (UniProt Q9BVG8); test: as above
T2 sequence: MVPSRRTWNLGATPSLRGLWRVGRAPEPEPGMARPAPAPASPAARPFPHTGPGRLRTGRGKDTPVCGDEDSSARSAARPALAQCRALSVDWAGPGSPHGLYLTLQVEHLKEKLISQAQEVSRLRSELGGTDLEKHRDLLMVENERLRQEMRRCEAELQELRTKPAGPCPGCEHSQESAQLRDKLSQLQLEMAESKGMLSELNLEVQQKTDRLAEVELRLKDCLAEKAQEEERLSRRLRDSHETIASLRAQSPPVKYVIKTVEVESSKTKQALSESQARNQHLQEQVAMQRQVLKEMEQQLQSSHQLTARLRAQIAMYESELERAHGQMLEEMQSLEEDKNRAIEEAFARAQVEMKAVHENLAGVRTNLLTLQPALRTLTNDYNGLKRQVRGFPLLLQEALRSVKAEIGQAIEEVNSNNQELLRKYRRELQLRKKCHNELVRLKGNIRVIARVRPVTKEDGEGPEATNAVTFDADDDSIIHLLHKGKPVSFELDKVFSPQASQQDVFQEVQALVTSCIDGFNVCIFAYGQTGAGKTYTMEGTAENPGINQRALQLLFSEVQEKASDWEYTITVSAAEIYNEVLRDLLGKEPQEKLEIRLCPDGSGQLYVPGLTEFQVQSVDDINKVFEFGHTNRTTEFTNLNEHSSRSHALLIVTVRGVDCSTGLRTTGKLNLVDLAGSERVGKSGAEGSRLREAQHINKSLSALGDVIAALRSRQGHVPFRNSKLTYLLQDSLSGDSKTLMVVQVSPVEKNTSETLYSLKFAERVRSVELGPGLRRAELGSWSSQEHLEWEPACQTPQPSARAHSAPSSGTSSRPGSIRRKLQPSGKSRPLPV

[4] = biological target: GFP-IFT20 (human (from HeLa cDNA)) (UniProt Q8IY31); test: as above
[5] = biological target: GFP-EB1 (human (from HeLa cDNA)) (UniProt Q15691); test: as above
GFP-RAB8A = GFP-RAB8A (UniProt P61006); test: as above
[6] = biological target: GFP-OCRL (human (from HeLa cDNA)) (UniProt Q01968); test: as above
GFP-CCDC11 = biological target: T3, GFP-CCDC11 (UniProt Q96M91); test: as above
T3 sequence: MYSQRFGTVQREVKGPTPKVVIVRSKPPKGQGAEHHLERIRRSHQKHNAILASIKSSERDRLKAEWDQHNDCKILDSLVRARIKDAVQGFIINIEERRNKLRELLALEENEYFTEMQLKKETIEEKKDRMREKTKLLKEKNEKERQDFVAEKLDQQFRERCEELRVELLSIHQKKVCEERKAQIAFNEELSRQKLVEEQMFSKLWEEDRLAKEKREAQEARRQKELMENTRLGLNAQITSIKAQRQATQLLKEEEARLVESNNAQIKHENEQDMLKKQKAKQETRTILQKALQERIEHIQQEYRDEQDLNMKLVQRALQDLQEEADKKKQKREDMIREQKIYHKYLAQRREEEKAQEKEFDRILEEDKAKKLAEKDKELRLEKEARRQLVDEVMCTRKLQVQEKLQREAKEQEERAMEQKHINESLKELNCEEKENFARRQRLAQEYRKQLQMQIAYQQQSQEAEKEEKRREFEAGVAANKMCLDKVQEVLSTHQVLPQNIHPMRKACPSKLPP

[7] = biological target: T4, GFP-DNM2 (human (from HeLa cDNA)) (UniProt P50570); test: as above
T4 sequence: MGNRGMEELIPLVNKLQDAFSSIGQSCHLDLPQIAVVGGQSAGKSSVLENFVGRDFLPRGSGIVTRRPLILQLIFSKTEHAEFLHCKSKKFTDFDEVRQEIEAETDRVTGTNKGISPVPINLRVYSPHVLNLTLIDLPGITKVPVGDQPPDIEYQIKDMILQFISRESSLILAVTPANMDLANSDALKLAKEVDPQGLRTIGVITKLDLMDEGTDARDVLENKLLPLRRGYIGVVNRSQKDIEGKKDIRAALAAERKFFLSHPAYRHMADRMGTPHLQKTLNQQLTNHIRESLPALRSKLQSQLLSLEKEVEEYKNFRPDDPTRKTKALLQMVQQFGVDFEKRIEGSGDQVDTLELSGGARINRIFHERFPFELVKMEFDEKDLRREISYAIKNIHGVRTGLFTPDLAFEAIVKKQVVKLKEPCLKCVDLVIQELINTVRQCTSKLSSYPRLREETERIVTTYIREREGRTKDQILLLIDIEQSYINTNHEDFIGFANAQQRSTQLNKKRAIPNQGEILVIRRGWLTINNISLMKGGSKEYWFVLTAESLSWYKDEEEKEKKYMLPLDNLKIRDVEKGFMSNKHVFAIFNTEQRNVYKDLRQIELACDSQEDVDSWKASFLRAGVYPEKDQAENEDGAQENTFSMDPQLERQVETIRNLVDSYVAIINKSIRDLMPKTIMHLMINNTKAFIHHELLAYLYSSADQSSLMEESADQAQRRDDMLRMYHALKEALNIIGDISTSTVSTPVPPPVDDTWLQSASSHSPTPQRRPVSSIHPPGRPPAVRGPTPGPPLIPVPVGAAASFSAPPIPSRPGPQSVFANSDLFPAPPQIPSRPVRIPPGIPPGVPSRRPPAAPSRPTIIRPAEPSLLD

GST-RABIN8 1‒245 = biological target: T5, GST-RABIN8 1‒245 (UniProt Q96QF0); test: pull-down; GST or GST fusion proteins (1 mg) crosslinked to Sepharose beads, incubated with lysate of HEK293T cells transfected with MYC-CENTLEIN in ELB overnight at 4°C; four washes with ELB; western blot; only the target purified
T5 sequence: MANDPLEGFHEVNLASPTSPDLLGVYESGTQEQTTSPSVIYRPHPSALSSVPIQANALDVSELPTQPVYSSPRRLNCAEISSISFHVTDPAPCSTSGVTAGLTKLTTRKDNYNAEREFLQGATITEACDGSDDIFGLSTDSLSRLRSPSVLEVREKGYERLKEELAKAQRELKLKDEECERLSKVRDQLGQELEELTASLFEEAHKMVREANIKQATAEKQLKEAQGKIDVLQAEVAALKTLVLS

GST-RABIN8 = biological target: T6, GST-RABIN8 (UniProt Q96QF0); test: as above
T6 sequence: T1 sequence

GST-RABIN8 1‒230 = biological target: T7, GST-RABIN8 1‒230 (UniProt Q96QF0); test: as above
T7 sequence: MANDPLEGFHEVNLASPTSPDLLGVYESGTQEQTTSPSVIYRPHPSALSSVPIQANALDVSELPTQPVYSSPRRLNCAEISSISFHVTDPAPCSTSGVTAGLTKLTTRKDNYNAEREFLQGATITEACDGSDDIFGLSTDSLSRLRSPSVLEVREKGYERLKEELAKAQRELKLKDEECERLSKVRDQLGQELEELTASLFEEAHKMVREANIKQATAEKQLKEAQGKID

GST-RABIN8 1‒260 = biological target: T8, GST-RABIN8 1‒260 (UniProt Q96QF0); test: as above
T8 sequence: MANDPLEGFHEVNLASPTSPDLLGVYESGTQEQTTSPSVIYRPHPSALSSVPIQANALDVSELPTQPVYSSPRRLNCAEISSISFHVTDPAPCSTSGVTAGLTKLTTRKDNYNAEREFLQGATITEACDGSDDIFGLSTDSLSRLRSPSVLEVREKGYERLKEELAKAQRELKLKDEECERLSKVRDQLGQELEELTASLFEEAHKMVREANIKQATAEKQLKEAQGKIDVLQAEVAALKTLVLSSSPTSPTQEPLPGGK

GST-RABIN8 261‒460 = biological target: T9, GST-RABIN8 261‒460 (UniProt Q96QF0); test: as above
T9 sequence: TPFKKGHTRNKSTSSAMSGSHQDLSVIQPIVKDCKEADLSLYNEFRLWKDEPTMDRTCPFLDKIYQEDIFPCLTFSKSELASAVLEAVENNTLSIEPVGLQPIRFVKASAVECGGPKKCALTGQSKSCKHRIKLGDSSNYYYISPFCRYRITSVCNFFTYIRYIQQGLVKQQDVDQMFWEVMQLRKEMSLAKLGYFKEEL

GST-RABIN8 1‒200 = biological target: T10, GST-RABIN8 1‒200 (UniProt Q96QF0); test: as above
T10 sequence: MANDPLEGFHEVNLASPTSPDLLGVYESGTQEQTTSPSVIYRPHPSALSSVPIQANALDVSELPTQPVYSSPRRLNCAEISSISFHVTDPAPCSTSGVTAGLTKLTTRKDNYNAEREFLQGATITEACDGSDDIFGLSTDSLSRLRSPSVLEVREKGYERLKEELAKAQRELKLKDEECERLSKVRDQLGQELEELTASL

Measured: binding

MYC-CENTLEIN (from UniProt Q9NXG0-2)
no binding: [1] | [2] | [4] | [5] | GFP-RAB8A | [6] | GFP-CCDC11 | [7] | GST-RABIN8 261‒460 | GST-RABIN8 1‒200
binds: GFP-RABIN8 | [3] | GST-RABIN8 1‒245 | GST-RABIN8 | GST-RABIN8 1‒230 | GST-RABIN8 1‒260
